Test results published in PMC7141649.
These are yes or no findings as the source states them, for the method shown. Binding seen in cells or lysates may run through a third protein. A yes stands for co-enrichment or nearness to the bait. Other partners may have been found.

Amino acid sequences for entries named in this document (tags omitted). A change or cut given only in a name is not applied to a line headed by its entry.
UniProt A0A0K0YAZ6: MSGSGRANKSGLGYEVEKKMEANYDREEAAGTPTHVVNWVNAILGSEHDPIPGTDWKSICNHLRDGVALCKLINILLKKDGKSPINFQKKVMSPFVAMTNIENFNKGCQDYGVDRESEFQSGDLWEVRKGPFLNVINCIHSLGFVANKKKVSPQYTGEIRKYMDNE
UniProt A0A0K0YB17: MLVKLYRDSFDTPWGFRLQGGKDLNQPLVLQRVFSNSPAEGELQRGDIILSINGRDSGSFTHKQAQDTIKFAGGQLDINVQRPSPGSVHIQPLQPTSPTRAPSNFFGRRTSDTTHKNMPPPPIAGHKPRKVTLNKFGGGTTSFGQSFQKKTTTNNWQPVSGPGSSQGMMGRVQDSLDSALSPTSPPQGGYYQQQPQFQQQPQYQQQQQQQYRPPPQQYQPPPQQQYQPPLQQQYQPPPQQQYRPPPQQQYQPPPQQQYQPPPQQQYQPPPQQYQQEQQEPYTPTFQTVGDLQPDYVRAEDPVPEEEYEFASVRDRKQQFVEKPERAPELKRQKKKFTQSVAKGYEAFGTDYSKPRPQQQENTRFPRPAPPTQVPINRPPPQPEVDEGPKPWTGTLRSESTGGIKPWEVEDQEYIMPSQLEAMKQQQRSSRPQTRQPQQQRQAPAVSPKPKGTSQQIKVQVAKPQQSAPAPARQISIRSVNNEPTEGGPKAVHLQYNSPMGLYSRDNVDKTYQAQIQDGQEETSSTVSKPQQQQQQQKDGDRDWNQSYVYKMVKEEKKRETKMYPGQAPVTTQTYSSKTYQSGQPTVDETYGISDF
UniProt A0A0K0YB05: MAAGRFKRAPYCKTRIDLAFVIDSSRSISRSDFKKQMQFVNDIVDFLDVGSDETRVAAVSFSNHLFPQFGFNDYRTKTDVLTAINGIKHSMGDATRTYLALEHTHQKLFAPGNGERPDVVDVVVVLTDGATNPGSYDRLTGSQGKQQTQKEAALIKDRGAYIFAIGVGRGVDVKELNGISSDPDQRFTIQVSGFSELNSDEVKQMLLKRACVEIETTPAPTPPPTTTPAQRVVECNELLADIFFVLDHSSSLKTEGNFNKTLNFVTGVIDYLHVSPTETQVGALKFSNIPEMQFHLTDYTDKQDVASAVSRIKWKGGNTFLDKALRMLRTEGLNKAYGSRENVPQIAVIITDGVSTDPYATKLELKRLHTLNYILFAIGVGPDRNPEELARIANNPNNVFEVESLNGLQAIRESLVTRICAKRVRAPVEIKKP

Molecular target: recombinant whirlin-like protein with His6 tag (bait of the pull-down) (Mytilus coruscus)
Assay: affinity purification with mass spectrometry; rWLP with His6 tag bound to Ni-NTA beads as bait; washed with 20 mM Tris-HCl, 150 mM NaCl, 10 mM imidazole, pH 8.0; incubated with total proteins extracted from the shell of M. coruscus for 4 h at 4°C; eluted with 300 mM NaCl, 300 mM imidazole; LC-MS/MS after trypsin; FDR <1%; only the target purified

binding	Substance
binds	transgelin-like protein-3 [Mytilus coruscus] (from UniProt A0A0K0YAZ6)
binds	PDZ domain-containing protein-1 [Mytilus coruscus] (from UniProt A0A0K0YB17)
binds	collagen-like protein-2 [Mytilus coruscus] (from UniProt A0A0K0YB05)
